# These are yes or no findings as the source states them, for the method shown. In cells and extracts the contact can be indirect. Binding calls can cover weak binding; strength is not graded here.
# B1: Arabidopsis STICHEL (STI), expressed in transgenic callus (protein, UniProt O64728 1-1218)
# chain: MSGSRVSDLSKLHLKKELTQIRKAGRVLRDPGTTSSWKSPLDSSRSVALLETPASRNGGSSSQFPIRGESSTNRRGKEKKVFLYNWKTQKSSSEKSGLAKNGKEEEEEEEDASSWTQASVNDDDDVSDARNGGDSYRREIQSASMGFRCRDTNLASQGVSKMRKSNVGSCKKKSKKKISSSRLDCLSKYQPRDDIVARNCNAGSDDTEEELSNSEDLRKVTGASPLLLKLKQKNWSRSSSRLLRANNRKEDSSCTYNSTPALSTSSYNMYAVRNPSTVGSWDGTTTSVNDGDDELDDNLDLPGRQGCGIPCYWTKKAMKHRGGCRSCCSPSFSDTLRRTGSSILCGSQSVYRRHNRHSSGGYSKQKIACRSAQGVLPLLSYGGDGRGGSSLGTGLSDDELSTNYGELDLEAQSRLDGRRWSTSYRSQDGLEAVALDGEEEEGSTPETIRSFSQKYRPMFFEELIGQSIVVQSLMNAVKRSRIAPVYLFQGPRGTGKTSTARIFSAALNCVATEEMKPCGYCKECNDFMSGKSKDFWELDGANKKGADKVRYLLKNLPTILPRNSSMYKVFVIDECHLLPSKTWLSFLKFLENPLQKVVFIFITTDLENVPRTIQSRCQKFLFDKLKDSDIVVRLKKIASDENLDVDLHALDLIAMNADGSLRDAETMLEQLSLLGKRITTALVNELVGVVSDEKLLELLELALSSDTAETVKRARELLDLGADPIVLMSQLASLIMDIIAGTYKVVDEKYSNAFFDGRNLTEADMEGLKHALKLLSEAEKQLRVSNDRSTWFTATLLQLGSMPSPGTTHTGSSRRQSSRATDDDPASVSREVMAYKQRIGGLHFSKSASPASVIKRNGNHSHEAKPFSRVIDNNCYKSSSSSQMIESEGSIASHENSIASTMMLNQRSSEKLNDIWRKCIERCHSKTLRQLLYTHGKLISISEVEGILVAYIAFGENDIKLRAERFLSSITNSIEMVLRRSVEVRIILLPETELLVVPHQTRKPEMTNKSGHLNNIAGLNAETDVEVGSSVESRSKLPMQRIESIIREQRLETAWLQTADKDTPGSIIRVKPERNQILPQEDTYRQTNVASAISSSGLTTHQWVDELNNEVKLLKIGDNGELQENLTGTRGQHCPLSPSLLHDTNFGNNKDNLGGYESGSGRVGCNILFCWNTKKTQRRSKSKQVKGTPVRSRRNRKSRFSLFNGCAKPRKAEGNIRR
# Target: GaBLT-GFP (full-length GaBLT coding region fused to GFP), expressed in transgenic callus (Gossypium arboreum) (UniProt I3QNV5)
# Assay: co-IP; extracts of 35S::STI+35S::GaBLT-GFP transgenic callus; immunoprecipitated with anti-GFP antibody and protein G-agarose; STI detected by western blot with anti-STI antibody; pre-immune serum (IgG) as control
binder,measurement,value
B1,binding,binds

# From paper PMC3808306
